Data as given in patent publication US20120255853A1, “Method for Producing Superoxide, Method for Evaluating Superoxide Scavenging Ability, Device for Producing Superoxide, and Device for Evaluating Superoxide Scavenging Ability” (Sapporo Medical University, priority 2009, published 2012).

Test: Superoxide generation by visible light irradiation of an aqueous solution of redox reaction catalyst, electron donor and CYPMPO, measured by ESR

Compound: Cc1cc2nc3c(=O)[nH]c(=O)nc-3n(C[C@H](O)[C@H](O)[C@H](O)COP(=O)(O)O)c2cc1C [FMN, flavin mononucleotide]
- Shape of ESR spectrum versus standard spectrum of superoxide (FMN 5 μmol/L, electron donor EDTA 5 mmol/L): in a similarity relationship
- Shape of ESR spectrum versus standard spectrum of superoxide (FMN 10 μmol/L, electron donor TMD 10 mmol/L): different
